The supplement of paper PMC4604168 (melanoma cell lines)
The other results are listed elsewhere or left out. Single values are uncertain, as repeats are few or missing.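 Cells were imaged in 1,536-well plates, and nuclei stained with an antibody against cleaved PARP were counted against all DNA-stained nuclei to give the apoptosis fraction. Screening doses were chosen to leave most cells alive, and resting and induced cleaved-PARP levels differ strongly between cell lines.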

The molecules below were run on COLO800 (assay: cleaved PARP positive nuclei fraction relative to DMSO control; melanoma cells; higher = more apoptosis). Conditions: library dose: low library concentration; 72 h.

Row | SMILES | cleaved PARP positive nuclei fraction
1 | COc1ccc(COc2ccc(Cc3cnc(N)nc3N)cc2OC)cc1 + C/C(O)=C(\C#N)C(=O)Nc1cc(Br)ccc1Br [LFM-A13] (first compound 1 µM, partner dose 2 µM) | 164%
2 | O=C(Oc1ccc([N+](=O)[O-])cc1)N1CCC(C(O)(c2ccc3c(c2)OCO3)c2ccc3c(c2)OCO3)CC1 + CCCCCCCCCCCC1=C(O)C(=O)C=C(O)C1=O [Embelin] (first compound 1 µM, partner dose 1.2 µM) | 45.7%
3 | COc1cc(N2CCC(N3CCN(C)CC3)CC2)ccc1Nc1ncc(Cl)c(Nc2ccccc2S(=O)(=O)C(C)C)n1 + O=C(Oc1ccc([N+](=O)[O-])cc1)N1CCC(C(O)(c2ccc3c(c2)OCO3)c2ccc3c(c2)OCO3)CC1 [JZL184] (first compound 0.08 µM, partner dose 1 µM) | 224%
4 | O=C(Nc1ccccc1)c1cc([N+](=O)[O-])ccc1Cl + O=C(Oc1ccc([N+](=O)[O-])cc1)N1CCC(C(O)(c2ccc3c(c2)OCO3)c2ccc3c(c2)OCO3)CC1 [JZL184] (first compound 2 µM, partner dose 1 µM) | 72.6%
5 | COC(=O)c1sccc1S(=O)(=O)Nc1ccc(Nc2ccccc2)cc1OC + C/C(O)=C(\C#N)C(=O)Nc1cc(Br)ccc1Br [LFM-A13] (first compound 1 µM, partner dose 2 µM) | 122%
6 | O=C(Oc1ccc([N+](=O)[O-])cc1)N1CCC(C(O)(c2ccc3c(c2)OCO3)c2ccc3c(c2)OCO3)CC1 + CC(C)CCN1c2nc(Nc3cc(F)c(O)c(F)c3)ncc2N(C)C(=O)C1C [BID1870] (first compound 1 µM, partner dose 0.2 µM) | 208%
7 | C[As](C)SC[C@H](NC(=O)CC[C@H](N)C(=O)O)C(=O)NCC(=O)O [Darinaparsin] + CCN(CC)CCCCNc1ncc2cc(-c3cc(OC)cc(OC)c3)c(NC(=O)NC(C)(C)C)nc2n1 [PD173074] (first compound 0.4 µM, partner dose 0.1 µM) | 110%
8 | Cc1cc(SCc2sc(-c3ccc(C(F)(F)F)c(F)c3)nc2C)ccc1OCC(=O)O + C/C(O)=C(\C#N)C(=O)Nc1cc(Br)ccc1Br [LFM-A13] (first compound 2 µM, partner dose 2 µM) | 125%
9 | O=C(Nc1cccc(Cl)c1)Nc1ncc(CCNc2ncnc3ccsc23)s1 + O=C(Oc1ccc([N+](=O)[O-])cc1)N1CCC(C(O)(c2ccc3c(c2)OCO3)c2ccc3c(c2)OCO3)CC1 [JZL184] (first compound 0.0008 µM, partner dose 1 µM) | 197%
10 | COc1cc2c(Oc3ccc4[nH]c(C)cc4c3F)ncnc2cc1OCCCN1CCCC1 [cediranib] + Cc1cc(SCc2sc(-c3ccc(C(F)(F)F)c(F)c3)nc2C)ccc1OCC(=O)O [GW0742] (first compound 0.4 µM, partner dose 2 µM) | 97.1%
11 | CC1(C)NC(=O)N(c2ccc([N+](=O)[O-])c(C(F)(F)F)c2)C1=O [nilutamide] + Cc1cc(SCc2sc(-c3ccc(C(F)(F)F)c(F)c3)nc2C)ccc1OCC(=O)O [GW0742] (first compound 1 µM, partner dose 2 µM) | 84.7%
12 | COC(=O)c1sccc1S(=O)(=O)Nc1ccc(Nc2ccccc2)cc1OC + O=C(Oc1ccc([N+](=O)[O-])cc1)N1CCC(C(O)(c2ccc3c(c2)OCO3)c2ccc3c(c2)OCO3)CC1 [JZL184] (first compound 1 µM, partner dose 1 µM) | 106%
13 | C[As](C)SC[C@H](NC(=O)CC[C@H](N)C(=O)O)C(=O)NCC(=O)O [Darinaparsin] + COc1ccc(COc2ccc(Cc3cnc(N)nc3N)cc2OC)cc1 [GW2580] (first compound 0.4 µM, partner dose 1 µM) | 28.5%
14 | Cn1nnc2c(C(N)=O)ncn2c1=O [temozolomide] + C/C(O)=C(\C#N)C(=O)Nc1cc(Br)ccc1Br [LFM-A13] (first compound 2 µM, partner dose 2 µM) | 193%
15 | Cc1cc(SCc2sc(-c3ccc(C(F)(F)F)c(F)c3)nc2C)ccc1OCC(=O)O + Oc1nc(-c2ccc(C(F)(F)F)cc2)nc2c1CSCC2 [XAV939] (first compound 2 µM, partner dose 2 µM) | 33.8%
16 | C/C(O)=C(\C#N)C(=O)Nc1cc(Br)ccc1Br + CC(C)CCN1c2nc(Nc3cc(F)c(O)c(F)c3)ncc2N(C)C(=O)C1C [BID1870] (first compound 2 µM, partner dose 0.2 µM) | 85.7%
17 | Cc1cc(SCc2sc(-c3ccc(C(F)(F)F)c(F)c3)nc2C)ccc1OCC(=O)O + c1cc(-c2cnn3cc(-c4ccc(OCCN5CCCCC5)cc4)cnc23)ccn1 [Dorsomorphin] (first compound 2 µM, partner dose 0.4 µM) | 99.8%

Row | SMILES | cleaved PARP positive nuclei fraction
18 | c1cc(-c2cnn3cc(-c4ccc(OCCN5CCCCC5)cc4)cnc23)ccn1 [Dorsomorphin] + O=C(Oc1ccc([N+](=O)[O-])cc1)N1CCC(C(O)(c2ccc3c(c2)OCO3)c2ccc3c(c2)OCO3)CC1 [JZL184] (first compound 0.4 µM, partner dose 1 µM) | 64.3%
19 | C[As](C)SC[C@H](NC(=O)CC[C@H](N)C(=O)O)C(=O)NCC(=O)O [Darinaparsin] + CCCCCCCCCCCC1=C(O)C(=O)C=C(O)C1=O [Embelin] (first compound 0.4 µM, partner dose 1.2 µM) | 62.2%
20 | COCC[n+]1c2c(n(Cc3cnccn3)c1C)C(=O)c1ccccc1C2=O + Cc1cc(SCc2sc(-c3ccc(C(F)(F)F)c(F)c3)nc2C)ccc1OCC(=O)O [GW0742] (first compound 0.0004 µM, partner dose 2 µM) | 87.8%
21 | C/C(O)=C(\C#N)C(=O)Nc1cc(Br)ccc1Br + Cn1cc(/C=C2\C(=O)Nc3cccnc32)c2ccccc21 [GW441756] (first compound 2 µM, partner dose 0.4 µM) | 78.5%
22 | C[As](C)SC[C@H](NC(=O)CC[C@H](N)C(=O)O)C(=O)NCC(=O)O [Darinaparsin] + Cc1cc(SCc2sc(-c3ccc(C(F)(F)F)c(F)c3)nc2C)ccc1OCC(=O)O [GW0742] (first compound 0.4 µM, partner dose 2 µM) | 76.2%
23 | OCCn1cc(-c2cnc3nnn(Cc4ccc5ncccc5c4)c3n2)cn1 + Cc1cc(SCc2sc(-c3ccc(C(F)(F)F)c(F)c3)nc2C)ccc1OCC(=O)O [GW0742] (first compound 1 µM, partner dose 2 µM) | 134%
24 | Cc1ccc(NC(=O)c2cccc(N(C)C)c2)cc1NC(=O)c1ccc(O)cc1 + C/C(O)=C(\C#N)C(=O)Nc1cc(Br)ccc1Br [LFM-A13] (first compound 2 µM, partner dose 2 µM) | 157%
25 | Cc1cc(SCc2sc(-c3ccc(C(F)(F)F)c(F)c3)nc2C)ccc1OCC(=O)O + Cc1cc([N+](=O)[O-])ccc1NS(=O)(=O)c1cc(Cl)ccc1Cl [FH535] (first compound 2 µM, partner dose 1 µM) | 87.6%
26 | Cn1cncc1[C@@](N)(c1ccc(Cl)cc1)c1ccc2c(c1)c(-c1cccc(Cl)c1)cc(=O)n2C [tipifarnib] + C/C(O)=C(\C#N)C(=O)Nc1cc(Br)ccc1Br [LFM-A13] (first compound 0.01 µM, partner dose 2 µM) | 87.5%
27 | Oc1nc(-c2ccc(C(F)(F)F)cc2)nc2c1CSCC2 + O=C(Oc1ccc([N+](=O)[O-])cc1)N1CCC(C(O)(c2ccc3c(c2)OCO3)c2ccc3c(c2)OCO3)CC1 [JZL184] (first compound 2 µM, partner dose 1 µM) | 90.5%
28 | O=C(O)c1ccc(-c2c[nH]c3ncc(-c4ccccc4)cc23)cc1C1CCCC1 + Cc1cc(SCc2sc(-c3ccc(C(F)(F)F)c(F)c3)nc2C)ccc1OCC(=O)O [GW0742] (first compound 0.16 µM, partner dose 2 µM) | 189%
29 | Cn1cncc1[C@@](N)(c1ccc(Cl)cc1)c1ccc2c(c1)c(-c1cccc(Cl)c1)cc(=O)n2C [tipifarnib] + Cc1cc(SCc2sc(-c3ccc(C(F)(F)F)c(F)c3)nc2C)ccc1OCC(=O)O [GW0742] (first compound 0.01 µM, partner dose 2 µM) | 395%
30 | CC(C)(C)c1cnc(CSc2cnc(NC(=O)C3CCNCC3)s2)o1 + C/C(O)=C(\C#N)C(=O)Nc1cc(Br)ccc1Br [LFM-A13] (first compound 0.01 µM, partner dose 2 µM) | 91.8%
31 | C#Cc1cccc(Nc2ncnc3cc(OCCOC)c(OCCOC)cc23)c1 [erlotinib] + O=C(Oc1ccc([N+](=O)[O-])cc1)N1CCC(C(O)(c2ccc3c(c2)OCO3)c2ccc3c(c2)OCO3)CC1 [JZL184] (first compound 0.8 µM, partner dose 1 µM) | 145%
32 | CC(C)(C)c1cnc(CSc2cnc(NC(=O)C3CCNCC3)s2)o1 + Cc1cc(SCc2sc(-c3ccc(C(F)(F)F)c(F)c3)nc2C)ccc1OCC(=O)O [GW0742] (first compound 0.01 µM, partner dose 2 µM) | 112%
33 | NCC(=O)Nc1ccc(-n2nc(C(F)(F)F)cc2-c2ccc3c(ccc4ccccc43)c2)cc1 + O=C(Oc1ccc([N+](=O)[O-])cc1)N1CCC(C(O)(c2ccc3c(c2)OCO3)c2ccc3c(c2)OCO3)CC1 [JZL184] (first compound 1 µM, partner dose 1 µM) | 110%
